From PMC3274522
No constants are given. Whether binding was seen depends on the method and setting. Binding seen in cells or lysates may run through a third protein. Some results given as binding are weak or reduced against the parent protein; the word gives no strength. Tags and fused reporters may be left off the sequences shown.

Target: T1, phospho-inositide-dependent kinase 1 (PDK1), V5-tagged (UniProt O15530)
T1 sequence: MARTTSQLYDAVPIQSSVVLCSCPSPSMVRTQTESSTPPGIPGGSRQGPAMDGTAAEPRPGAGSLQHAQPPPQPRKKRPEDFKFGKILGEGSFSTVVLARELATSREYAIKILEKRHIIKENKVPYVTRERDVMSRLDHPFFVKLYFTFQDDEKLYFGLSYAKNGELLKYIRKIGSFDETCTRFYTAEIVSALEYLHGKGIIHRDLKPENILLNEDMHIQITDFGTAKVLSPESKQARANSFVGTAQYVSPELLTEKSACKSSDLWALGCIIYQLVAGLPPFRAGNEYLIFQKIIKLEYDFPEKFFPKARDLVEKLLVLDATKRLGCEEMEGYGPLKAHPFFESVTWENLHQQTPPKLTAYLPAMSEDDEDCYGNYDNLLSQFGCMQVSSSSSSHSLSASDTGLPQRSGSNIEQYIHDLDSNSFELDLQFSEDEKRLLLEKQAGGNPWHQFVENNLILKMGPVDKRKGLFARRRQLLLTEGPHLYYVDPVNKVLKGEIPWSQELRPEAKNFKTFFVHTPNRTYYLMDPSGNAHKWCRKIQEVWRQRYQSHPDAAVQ
Assay: co-IP; HEK293T cells co-transfected with V5-PDK1 and MYC-USP4; PDK1 immunoprecipitated with anti-V5 beads; IP and input probed with anti-V5 and MYC antibodies; extracts in RIPA or ELB buffer

binding: binds
B1: Ubiquitin-Specific Protease 4 (USP4), MYC-tagged (enzyme, UniProt Q13107 1-963)
chain: MAEGGGCRERPDAETQKSELGPLMRTTLQRGAQWYLIDSRWFKQWKKYVGFDSWDMYNVGEHNLFPGPIDNSGLFSDPESQTLKEHLIDELDYVLVPTEAWNKLLNWYGCVEGQQPIVRKVVEHGLFVKHCKVEVYLLELKLCENSDPTNVLSCHFSKADTIATIEKEMRKLFNIPAERETRLWNKYMSNTYEQLSKLDNTVQDAGLYQGQVLVIEPQNEDGTWPRQTLQSKSSTAPSRNFTTSPKSSASPYSSVSASLIANGDSTSTCGMHSSGVSRGGSGFSASYNCQEPPSSHIQPGLCGLGNLGNTCFMNSALQCLSNTAPLTDYFLKDEYEAEINRDNPLGMKGEIAEAYAELIKQMWSGRDAHVAPRMFKTQVGRFAPQFSGYQQQDSQELLAFLLDGLHEDLNRVKKKPYLELKDANGRPDAVVAKEAWENHRLRNDSVIVDTFHGLFKSTLVCPECAKVSVTFDPFCYLTLPLPLKKDRVMEVFLVPADPHCRPTQYRVTVPLMGAVSDLCEALSRLSGIAAENMVVADVYNHRFHKIFQMDEGLNHIMPRDDIFVYEVCSTSVDGSECVTLPVYFRERKSRPSSTSSASALYGQPLLLSVPKHKLTLESLYQAVCDRISRYVKQPLPDEFGSSPLEPGACNGSRNSCEGEDEEEMEHQEEGKEQLSETEGSGEDEPGNDPSETTQKKIKGQPCPKRLFTFSLVNSYGTADINSLAADGKLLKLNSRSTLAMDWDSETRRLYYDEQESEAYEKHVSMLQPQKKKKTTVALRDCIELFTTMETLGEHDPWYCPNCKKHQQATKKFDLWSLPKILVVHLKRFSYNRYWRDKLDTVVEFPIRGLNMSEFVCNLSARPYVYDLIAVSNHYGAMGVGHYTAYAKNKLNGKWYYFDDSNVSLASEDQIVTKAAYVLFYQRRDDEFYKTPSLSSSGSSDGGTRPSSSQQGFGDDEACSMDTN
